Measured values reported in PMC9314365.
Results are given in words; binding and its absence hold for the method and conditions named. In cells and extracts the contact can be indirect. These calls come from enrichment with a bait or labelling near it, and not all partners need be listed. Where a sequence is shown, tags or fusion partners need not be part of it.

Biological target: GFP-RalGAPα1
Test: affinity purification with mass spectrometry; GFP-RalGAPα1 expressed with HA-RalGAPβ in HEK293 cells; immunoprecipitation with GFP-Trap beads (GFP-binder); SDS-PAGE, in-gel trypsin digestion, LC-MS/MS; empty vectors as control

binding: binds
B1: HA-RalGAPβ (protein, UniProt Q86X10 1-1494)
chain: MYSEWRSLHLVIQNDQGHTSVLHSYPESVGREVANAVVRPLGQVLGTPSVAGSENLLKTDKEVKWTMEVICYGLTLPLDGETVKYCVDVYTDWIMALVLPKDSIPLPVIKEPNQYVQTILKHLQNLFVPRQEQGSSQIRLCLQVLRAIQKLARESSLMARETWEVLLLFLLQINDILLAPPTVQGGIAENLAEKLIGVLFEVWLLACTRCFPTPPYWKTAKEMVANWRHHPAVVEQWSKVICALTSRLLRFTYGPSFPAFKVPDEDASLIPPEMDNECVAQTWFRFLHMLSNPVDLSNPAIISSTPKFQEQFLNVSGMPQELNQYPCLKHLPQIFFRAMRGISCLVDAFLGISRPRSDSAPPTPVNRLSMPQSAAVSTTPPHNRRHRAVTVNKATMKTSTVSTAHASKVQHQTSSTSPLSSPNQTSSEPRPLPAPRRPKVNSILNLFGSWLFDAAFVHCKLHNGINRDSSMTAITTQASMEFRRKGSQMSTDTMVSNPMFDASEFPDNYEAGRAEACGTLCRIFCSKKTGEEILPAYLSRFYMLLIQGLQINDYVCHPVLASVILNSPPLFCCDLKGIDVVVPYFISALETILPDRELSKFKSYVNPTELRRSSINILLSLLPLPHHFGTVKSEVVLEGKFSNDDSSSYDKPITFLSLKLRLVNILIGALQTETDPNNTQMILGAMLNIVQDSALLEAIGCQMEMGGGENNLKSHSRTNSGISSASGGSTEPTTPDSERPAQALLRDYALNTDSAAGLLIRSIHLVTQRLNSQWRQDMSISLAALELLSGLAKVKVMVDSGDRKRAISSVCTYIVYQCSRPAPLHSRDLHSMIVAAFQCLCVWLTEHPDMLDEKDCLKEVLEIVELGISGSKSKNNEQEVKYKGDKEPNPASMRVKDAAEATLTCIMQLLGAFPSPSGPASPCSLVNETTLIKYSRLPTINKHSFRYFVLDNSVILAMLEQPLGNEQNDFFPSVTVLVRGMSGRLAWAQQLCLLPRGAKANQKLFVPEPRPVPKNDVGFKYSVKHRPFPEEVDKIPFVKADLSIPDLHEIVTEELEERHEKLRSGMAQQIAYEIHLEQQSEEELQKRSFPDPVTDCKPPPPAQEFQTARLFLSHFGFLSLEALKEPANSRLPPHLIALDSTIPGFFDDIGYLDLLPCRPFDTVFIFYMKPGQKTNQEILKNVESSRTVQPHFLEFLLSLGWSVDVGRHPGWTGHVSTSWSINCCDDGEGSQQEVISSEDIGASIFNGQKKVLYYADALTEIAFVVPSPVESLTDSLESNISDQDSDSNMDLMPGILKQPSLTLELFPNHTDNLNSSQRLSPSSRMRKLPQGRPVPPLGPETRVSVVWVERYDDIENFPLSELMTEISTGVETTANSSTSLRSTTLEKEVPVIFIHPLNTGLFRIKIQGATGKFNMVIPLVDGMIVSRRALGFLVRQTVINICRRKRLESDSYSPPHVRRKQKITDIVNKYRNKQLEPEFYTSLFQEVGLKNCSS
